Results taken from PMC12431657, “Discovery and mechanistic insights of dibenzoylmethane as a broad spectrum inhibitor of coronavirus” (PLOS Pathogens, 2025).
Where a name gives a salt, the structure may show the parent alone. Read-outs that look alike come from different tables or passages of the source. Screen size: about 3,300 compounds; about 95 (3%) showed an effect of 50% or more. The list shows a part of the results. Peptide text beside a SMILES is read from it.

System: HCoV-229E
Set-up: species or system Huh-7; HTS, protection from HCoV-229E induced cell death, luminescent cell viability (CellCounting-Lite 2.0), inhibition rate
Details: 24 h post infection, 1 h compound pre-incubation, 10 µM, inhibitor

SMILES | 229E Inhibition rate [%] | 229E Inhibition rate (229E Inhibition rate, 24 h) [%]
O=c1cc(-c2ccc(O)c(O)c2)oc2c([C@@H]3O[C@H](CO)[C@@H](O)[C@H](O)[C@H]3O[C@H]3O[C@@H](CO)[C@@H](O)[C@@H](O)[C@@H]3O)c(O)cc(O)c12 [2"-O-beta-L-galactopyranosylorientin] | 6.8 | 
COc1c(O[C@@H]2O[C@H](CO)[C@@H](O)[C@H](O)[C@H]2O)cc2occ(-c3ccc(O)cc3)c(=O)c2c1O [Tectoridin] | 11.2 | 
C=CC1(C)CCC(C(C)(C)O)O1 (stereo not shown) [Linalool oxide] | 6.4 | 
COc1cc(OC)c2c(=O)cc(-c3ccc(OC)c(OC)c3)oc2c1 [5,7,3',4'-Tetramethoxyflavone] | 18.2 | 
O=c1c2ccccc2oc2ccccc12 [Xanthone] | 16.6 | 
O=C(O)C/C=C/CC(=O)O [Trans-2-butene-1,4-dicarboxylic acid] | 11.8 | 
NC(COP(=O)(O)O)C(=O)O (racemic) [DL-O-Phosphoserine] | 13.2 | 
CO[C@H]1O[C@@H]2O[C@@]3(C)CC[C@H]4[C@H](C)CC[C@@H]([C@H]1C)[C@@]24OO3 [Artemether] | 15.9 | 
O=C1C[C@@H](c2ccc(O)cc2)Oc2cc(O[C@@H]3O[C@H](CO)[C@@H](O)[C@H](O)[C@H]3O[C@@H]3OC[C@](O)(CO)[C@H]3O)ccc21 [Liquiritigenin-7-O-β-D-glucopyranosyl-(1→2)-β-D-apiofuranoside] | 21.1 | 
CCCCCCCCC(=O)O [Nonanoic acid] | 10.9 | 
CN(C)[C@@H]1C(O)=C(C(N)=O)C(=O)[C@@]2(O)C(O)=C3C(=O)c4c(O)ccc(Cl)c4[C@@H](O)[C@H]3C[C@@H]12 [Demeclocycline (hydrochloride)] | 0 | 
CC(=O)N[C@@H](C)C(=O)O [Ac-Ala-OH] | 13.2 | 
CC(C)C12CCC(C)(CC1)O2 [1,4-Cineole] | 14.2 | 
COc1ccccc1C(=O)O [2-Methoxybenzoic acid] | 19.8 | 
Oc1cc(O)c2c(c1)O[C@@]1(c3ccc(O)c(O)c3)Oc3cc(O)c4c(c3[C@@H]2[C@H]1O)O[C@H](c1ccc(O)c(O)c1)[C@H](O)[C@H]4c1c(O)cc(O)c2c1O[C@H](c1ccc(O)c(O)c1)[C@H](O)C2 [Cinnamtannin B-1] | 6.4 | 
OCCc1ccc(O)cc1 [Tyrosol] | 20 | 
O=C(/C=C/c1ccc(O)cc1)OC[C@H]1O[C@@H](Oc2c(-c3ccc(O)cc3)oc3cc(O)cc(O)c3c2=O)[C@H](O)[C@@H](O)[C@@H]1O [Tiliroside] | 9.9 | 
O=C(O)CCCCCCCCCCCC(=O)O [Tridecanedioic acid] | 19.9 | 
N#CS [Sodium thiocyanate] | 15 | 
OCc1ccoc1 [3-Furanmethanol] | 0 | 
C[C@@H]1O[C@@H](Oc2cc(O)c3c(=O)c(O[C@@H]4O[C@@H](C)[C@H](O)[C@@H](O)[C@H]4O)c(-c4ccc(O)cc4)oc3c2)[C@H](O)[C@H](O)[C@H]1O [Kaempferitrin] | 13.1 | 

SMILES | 229E Inhibition rate [%] | 229E Inhibition rate (229E Inhibition rate, 24 h) [%]
C=C1C[C@@]23CC[C@H]4[C@@](C)(CCC[C@@]4(C)C(=O)O[C@@H]4O[C@H](CO)[C@@H](O)[C@H](O)[C@H]4O[C@@H]4O[C@H](CO)[C@@H](O)[C@H](O)[C@H]4O)[C@@H]2CC[C@]1(O[C@@H]1O[C@H](CO)[C@@H](O)[C@H](O[C@@H]2O[C@H](CO)[C@@H](O)[C@H](O)[C@H]2O)[C@H]1O[C@@H]1O[C@H](CO)[C@@H](O)[C@H](O)[C@H]1O)C3 [Rebaudioside D] | 21.7 | 
CC[C@@H](C(=O)[C@@H](C)[C@@H](O)[C@H](C)CCc1ccc(C)c(O)c1C(=O)O)[C@H]1O[C@](CC)([C@H]2CC[C@](O)(CC)[C@H](C)O2)C[C@@H]1C [Lasalocid] |  | 3.1
C/C=C(/C)C(=O)O[C@H]1C(C)=C[C@]23C(=O)[C@@H](C=C4COC(C)(C)O[C@H]4[C@]12O)[C@H]1[C@@H](C[C@H]3C)C1(C)C [Ingenol-5,20-acetonide-3-O-angelate] | 24.2 | 
O=C1c2ccccc2C(=O)c2cc(O)ccc21 [2-Hydroxyanthraquinone] | 23.5 | 
NCCS(=O)O [Hypotaurine] | 11.8 | 
CCCCC1OC(=O)c2ccccc21 (stereo not shown) [Butylphthalide] | 0 | 
C[C@@H]1CC[C@@]2(OC1)O[C@H]1C[C@H]3[C@@H]4CC[C@@H]5C[C@@H](O)CC[C@]5(C)[C@H]4CC[C@]3(C)[C@H]1[C@@H]2C [Smilagenin] | 10.8 | 
O=c1c(O[C@@H]2O[C@H](CO)[C@@H](O)[C@H](O)[C@H]2O[C@@H]2OC[C@@H](O)[C@H](O)[C@H]2O)c(-c2ccc(O)cc2)oc2cc(O)cc(O)c12 [Leucoside] | 7.8 | 
CCCCCCCCCCCCCC(=O)OCC(O)CO (stereo not shown) [1-Monomyristin] | 7.6 | 
CC(C)=CCc1cc(-c2coc3cc(O)cc(O)c3c2=O)cc(O)c1O [Glycyrrhisoflavone] | 62.7 | 
COc1cc(/C=C/c2ccc(O)c(O)c2)cc(OC)c1 [3'-Hydroxypterostilbene] | 11.5 | 
O=C1CC(c2ccc(O)cc2)Oc2ccccc21 (stereo not shown) [4'-Hydroxyflavanone] | 32.3 | 
CC[C@@H]1CN2CC[C@@]3(C(=O)Nc4ccccc43)[C@@H]2C[C@@H]1/C(=C\OC)C(=O)OC [Corynoxine] | 21.5 | 
CCCCCCCCCCCCC(=O)O [Tridecanoic acid] | 12.5 | 
NCc1ccc(O)cc1 [4-Hydroxybenzylamine] | 0 | 
OC[C@H]1NC[C@@H](O)[C@@H](O)[C@@H]1O [1-Deoxymannojirimycin (hydrochloride)] | 29.2 | 
C[C@H]1O[C@@H](O[C@H]2CC[C@@]3(C)[C@@H](CC[C@]4(C)[C@@H]3C=C[C@]35OC[C@@]6(CCC(C)(C)C[C@H]63)[C@H](O)C[C@]54C)[C@]2(C)CO)[C@H](O)[C@@H](O[C@@H]2O[C@H](CO)[C@@H](O)[C@H](O)[C@H]2O)[C@H]1O [Saikosaponin D] | 17.7 | 
COc1cc2cc(c1Cl)N(C)C(=O)C[C@H](O)[C@]1(C)O[C@H]1[C@H](C)[C@@H]1C[C@@](O)(NC(=O)O1)[C@H](OC)/C=C/C=C(\C)C2 [Maytansinol] | 12.6 | 
O=C(OCc1ccccc1)c1ccccc1 [Benzyl benzoate] | 12.5 | 
COC(=O)c1ccc(OC)c(O)c1 [Methyl isovanillate] | 12.8 | 
CC(C)(O)CC(=O)O [3-Hydroxyisovaleric acid] | 20.6 | 

A run of entries taken from the entries so far, for reference:
SMILES | 229E Inhibition rate [%] | 229E Inhibition rate (229E Inhibition rate, 24 h) [%]
COc1c(O[C@@H]2O[C@H](CO)[C@@H](O)[C@H](O)[C@H]2O)cc2occ(-c3ccc(O)cc3)c(=O)c2c1O [Tectoridin] | 11.2 | 
C=CC1(C)CCC(C(C)(C)O)O1 (stereo not shown) [Linalool oxide] | 6.4 | 

Next compounds follow.

SMILES | 229E Inhibition rate [%] | 229E Inhibition rate (229E Inhibition rate, 24 h) [%]
COc1nccnc1CC(C)C [2-Isobutyl-3-methoxypyrazine] | 10.1 | 
CC(C)[C@@H]1NC(=O)[C@@H]2CCCN2C(=O)[C@H](C(C)C)NC(=O)CNC(=O)[C@H](C)NC(=O)[C@H](Cc2c[nH]c3ccccc23)NC1=O [Segetalin A] (cyclo(AGVPVW)) | 4 | 
OC[C@H]1O[C@H](OC[C@H]2O[C@H](O[C@H]3[C@H](O)[C@@H](O)[C@@H](O)O[C@@H]3CO)[C@H](O)[C@@H](O)[C@@H]2O[C@H]2O[C@H](CO)[C@@H](O)[C@H](O)[C@H]2O)[C@H](O)[C@@H](O)[C@@H]1O [Glycogen, Oysters] | 5 | 
COc1cc(/C=C/C(=O)O[C@@H]2C[C@@](O)(C(=O)O)C[C@@H](O)[C@@H]2O)ccc1O [3-Feruloylquinic acid] | 12.8 | 
C[C@@H]1CC[C@@]2(OC1)O[C@H]1C[C@H]3[C@@H]4CC=C5C[C@@H](O)C[C@@H](O)[C@]5(C)[C@H]4CC[C@]3(C)[C@H]1[C@@H]2C [Ruscogenin] | 35.6 | 
COc1ccc2c(=O)cc(-c3ccccc3)oc2c1 [7-Methoxyflavone] | 36.2 | 
O=C(CC(=O)c1ccccc1)c1ccccc1 [DBM, dibenzoylmethane] | 28.7 | 
CC(=O)OCCc1ccc(O)c(O)c1 [Hydroxytyrosol acetate] | 11.3 | 
CC(C)=CCc1c2ccoc2c(O)c2oc(=O)ccc12 [Alloimperatorin] | 0 | 
C[n+]1cccc(C(=O)[O-])c1 [Trigonelline (chloride)] |  | 13.3
C[C@@]1(C(=O)O)CC[C@]2(C)CC[C@]3(C)C4=CC(=O)c5c(cc(O)c(O)c5C=O)[C@]4(C)CC[C@@]3(C)[C@@H]2C1 [Demethylzeylasteral] | 6.3 | 
CCCCCCC(=O)CCCCCC/C=C/C[C@@H](O)[C@H](O)[C@@](N)(CO)C(=O)O [Myriocin] | 6 | 
CC(C)CCC(=O)O [4-Methylpentanoic acid] | 5.6 | 
CSCCC(N)C(=O)O (racemic) [DL-Methionine] | 9.6 | 
O=C(O)c1cc(O)c(O)c(O)c1 [Gallic acid] |  | 39.2
Oc1ccc2[nH]ccc2c1 [5-Hydroxyindole] | 11.8 | 
COc1c(O)cc2oc3cc4c(c(O)c3c(=O)c2c1CC=C(C)C)CCC(C)(C)O4 [3-Isomangostin] | 11.6 | 
Cc1ncc(CO)c(CO)c1O [Pyridoxine (hydrochloride)] |  | 0
C[C@H](CO[C@@H]1O[C@H](CO)[C@@H](O)[C@H](O)[C@H]1O)[C@H]1CC[C@@]2(CC[C@]3(C)[C@H](CC[C@@H]4[C@@]5(C)CC[C@H](O[C@@H]6O[C@H](CO)[C@@H](O)[C@H](O)[C@H]6O[C@@H]6OC[C@@H](O)[C@H](O)[C@H]6O)[C@@](C)(CO)[C@@H]5CC[C@]43C)[C@H]2O)CO1 [Hosenkoside F] | 11.1 | 
